2 sequences from patent publication US20190233824 can be followed below.

Sequences of proteins named here, by UniProt entry; tags and fusion partners are left off. Residues count along the entry.
UniProt Q15116, 25-288: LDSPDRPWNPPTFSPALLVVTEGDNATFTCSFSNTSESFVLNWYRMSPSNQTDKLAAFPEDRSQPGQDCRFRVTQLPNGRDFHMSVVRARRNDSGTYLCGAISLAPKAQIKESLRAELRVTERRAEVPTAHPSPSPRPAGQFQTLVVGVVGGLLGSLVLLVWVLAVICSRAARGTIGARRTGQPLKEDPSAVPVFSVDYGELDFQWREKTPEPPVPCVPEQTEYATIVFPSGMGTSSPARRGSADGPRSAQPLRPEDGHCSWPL

In series [1] the target is PD-1 (endogenous, on HEL 92.1.7 cells) (Homo sapiens) (UniProt Q15116). Nature of the series: flow cytometry. To be noted: protein on the cell surface, single-stranded DNA. (Flow cytometry measures light scatter and fluorescence of single cells or particles in a stream.)
In series [2] the target is PD-1 (endogenous, in total cell lysate of HEL 92.1.7 / KG-1) (Homo sapiens) (UniProt Q15116). Nature of the series: BLI. As to conditions: per-concentration fits 0.727, 0.691, 0.555, 0.286 nM, same buffer, 25 C, protein in an extract, label: 5' biotin (BLI) or FAM (flow), single-stranded DNA.

Where cells or extracts were used, other partners may take part.

With “CCGTATACATACCTGATAGCGTATGCGAGGAGAGGGATTGGTGTGGTGGGGCTCTCTCAGTAGGTGCATAAGCGCATGCATGC [15-120-298]”, the binding result in series [1] (label: fluorescein) is recorded as “binds”.
Take “CCGTATACATACCTGATAGCGTATGCGAGGAAGTGGGCTTGGTGTGGTGGGCTTCTCTCAGTAGGTGCATAAGCGCATGCATGC [fpf2 (10-150-373)]”: the binding result in series [2] and in series [1] (label: 5' biotin (BLI) or FAM (flow)) was “binds” in each case.
